These are yes or no findings as the source states them, for the method shown. In cells and extracts the contact can be indirect. Some results given as binding are weak or reduced against the parent protein; the word gives no strength.
Target: T1, IL-27Rα (mouse) (UniProt O70394)
T1 sequence (looked up): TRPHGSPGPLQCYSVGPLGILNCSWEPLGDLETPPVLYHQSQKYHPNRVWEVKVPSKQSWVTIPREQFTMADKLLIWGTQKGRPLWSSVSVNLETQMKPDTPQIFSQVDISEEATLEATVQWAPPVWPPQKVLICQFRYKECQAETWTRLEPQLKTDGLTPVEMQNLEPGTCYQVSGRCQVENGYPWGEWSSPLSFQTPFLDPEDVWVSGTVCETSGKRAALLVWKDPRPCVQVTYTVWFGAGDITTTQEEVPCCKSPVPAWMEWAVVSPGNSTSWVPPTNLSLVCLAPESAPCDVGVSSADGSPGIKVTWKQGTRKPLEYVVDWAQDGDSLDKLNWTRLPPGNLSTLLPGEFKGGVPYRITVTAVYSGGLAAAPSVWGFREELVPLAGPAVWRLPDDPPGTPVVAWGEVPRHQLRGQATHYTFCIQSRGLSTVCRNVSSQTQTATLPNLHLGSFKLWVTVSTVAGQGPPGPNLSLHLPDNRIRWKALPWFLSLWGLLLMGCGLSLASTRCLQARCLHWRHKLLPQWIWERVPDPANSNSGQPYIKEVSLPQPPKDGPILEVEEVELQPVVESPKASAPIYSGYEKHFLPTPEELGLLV
Test: reciprocal co-immunoprecipitation from activated B-cells

Amino acid sequences for entries named in this document (tags omitted). Residues count along the entry.
UniProt P97378, residues 24-874: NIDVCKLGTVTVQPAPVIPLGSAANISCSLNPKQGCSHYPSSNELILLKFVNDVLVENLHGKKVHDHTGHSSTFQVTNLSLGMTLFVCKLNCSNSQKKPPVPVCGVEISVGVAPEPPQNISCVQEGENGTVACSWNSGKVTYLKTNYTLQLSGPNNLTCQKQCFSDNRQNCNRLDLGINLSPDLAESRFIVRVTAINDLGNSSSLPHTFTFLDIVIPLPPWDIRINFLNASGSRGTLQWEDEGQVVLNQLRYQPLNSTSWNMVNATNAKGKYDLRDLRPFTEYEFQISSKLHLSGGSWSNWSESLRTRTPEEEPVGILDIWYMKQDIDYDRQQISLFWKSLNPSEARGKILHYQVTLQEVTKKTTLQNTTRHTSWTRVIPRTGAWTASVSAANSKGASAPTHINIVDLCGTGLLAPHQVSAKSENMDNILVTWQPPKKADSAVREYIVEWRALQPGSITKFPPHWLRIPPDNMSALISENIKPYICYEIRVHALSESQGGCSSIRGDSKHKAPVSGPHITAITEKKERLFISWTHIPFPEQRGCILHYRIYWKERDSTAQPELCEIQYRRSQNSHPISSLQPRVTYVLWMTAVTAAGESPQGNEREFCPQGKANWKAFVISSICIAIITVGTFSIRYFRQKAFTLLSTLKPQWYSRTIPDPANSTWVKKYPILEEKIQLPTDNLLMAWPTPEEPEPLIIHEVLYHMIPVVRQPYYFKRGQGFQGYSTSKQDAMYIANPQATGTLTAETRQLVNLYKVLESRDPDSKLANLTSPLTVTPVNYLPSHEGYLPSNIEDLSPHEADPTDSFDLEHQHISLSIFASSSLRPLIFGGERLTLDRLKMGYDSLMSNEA

## IL-12Rβ2 (from UniProt P97378 24-874) (receptor)
  binding: binds

— patent US20150110737A1
